PMC8113879, “Molecular properties of human guanylate cyclase–activating protein 2 (GCAP2) and its retinal dystrophy–associated variant G157R” (The Journal of Biological Chemistry, 2021)
Results are given in words; binding and its absence hold for the method and conditions named.

Molecular target: nonmyristoylated human guanylate cyclase-activating protein 2 (human) (UniProt Q9UMX6)
Assay: condition: only in the absence of Ca2+ (500 uM EGTA + 1 mM Mg2+); ~40 uM protein; SEC; analytical SEC, Superose 12 10/300GL, 20 mM Tris HCl pH 7.5, 150 mM KCl, 1 mM DTT, 500 uM EGTA + 1 mM Mg2+ (no Ca2+), 25 C; ~40 uM protein or 5-80 uM for the titration; apparent KD from a hyperbolic fit of apparent mass against concentration; monomer to dimer; both purified

B1: nonmyristoylated human guanylate cyclase-activating protein 2 (natural protein, UniProt Q9UMX6 1-200, looked up)
chain: MGQEFSWEEAEAAGEIDVAELQEWYKKFVMECPSGTLFMHEFKRFFKVTDDEEASQYVEGMFRAFDKNGDNTIDFLEYVAALNLVLRGTLEHKLKWTFKIYDKDGNGCIDRLELLNIVEGIYQLKKACRRELQTEQGQLLTPEEVVDRIFLLVDENGDGQLSLNEFVEGARRDKWVMKMLQMDMNPSSWLAQQRRKSAMF
notes: cDNA cloned into pET-11a(+) with NdeI and NheI; No tag is mentioned; also called nmGCAP2; nonmyristoylated GCAP2
**Q.** Which binding does the source give for B1 here?
**A.** no binding
